Results are given in words; binding and its absence hold for the method and conditions named. Some results given as binding are weak or reduced against the parent protein; the word gives no strength. Tags and fused reporters may be left off the sequences shown.

The text below walks through data of article PMC10444860.

The test concerns the target DLD C484A, Myc-DDK tagged (human) (UniProt P09622). The experiment in a line: native gel or EMSA; Blue native PAGE (NativePAGE Novex Bis-Tris) of 30 ug whole cell lysates of transfected HEK293T cells (lysis buffer with 1% lauryl maltoside, pH 7.2), native immunoblot; monomer and dimer of DLD. (Mobility shift assays separate free from complexed probe on a gel.)

B1: DLD C484A, Myc-DDK tagged (enzyme, UniProt P09622 36-509)
chain: ADQPIDADVTVIGSGPGGYVAAIKAAQLGFKTVCIEKNETLGGTCLNVGCIPSKALLNNSHYYHMAHGKDFASRGIEMSEVRLNLDKMMEQKSTAVKALTGGIAHLFKQNKVVHVNGYGKITGKNQVTATKADGGTQVIDTKNILIATGSEVTPFPGITIDEDTIVSSTGALSLKKVPEKMVVIGAGVIGVELGSVWQRLGADVTAVEFLGHVGGVGIDMEISKNFQRILQKQGFKFKLNTKVTGATKKSDGKIDVSIEAASGGKAEVITCDVLLVCIGRRPFTKNLGLEELGIELDPRGRIPVNTRFQTKIPNIYAIGDVVAGPMLAHKAEDEGIICVEGMAGGAVHIDYNCVPSVIYTHPEVAWVGKSEEQLKEEGIEYKVGKFPFAANSRAKTNADTDGMVKILGQKSTDRVLGAHILGPGAGEMVNEAALALEYGASCEDIARVAHAHPTLSEAFREANLAASFGKSINF
Consider B1, for which the binding result is recorded as “binds”.
